## Library screen at single concentrations

Amino acid sequences for entries named in this document (tags omitted).
UniProt P9WNZ1, whole entry: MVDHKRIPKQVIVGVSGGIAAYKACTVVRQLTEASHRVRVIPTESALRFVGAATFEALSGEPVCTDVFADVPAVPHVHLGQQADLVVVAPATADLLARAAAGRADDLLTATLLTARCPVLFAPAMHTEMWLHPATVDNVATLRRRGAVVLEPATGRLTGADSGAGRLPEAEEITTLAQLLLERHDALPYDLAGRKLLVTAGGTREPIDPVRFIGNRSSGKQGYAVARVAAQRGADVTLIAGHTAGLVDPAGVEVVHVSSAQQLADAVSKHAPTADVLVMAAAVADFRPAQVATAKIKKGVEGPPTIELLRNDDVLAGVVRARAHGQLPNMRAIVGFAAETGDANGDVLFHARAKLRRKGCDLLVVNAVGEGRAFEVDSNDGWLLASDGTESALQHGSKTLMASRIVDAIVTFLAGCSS

From ChEMBL document CHEMBL3988442, “University of Dundee, Small-Polar-MMV Screening Library” (2021).

Each number is a percent effect as filed.
How 0% and 100% were set is not recorded. Most values in the screen are low, and negative values occur.
Compounds were drawn at random from those tested, without regard to their results.

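Enzyme assay of CoaBC with a phosphate dye (Biomol Green) read at 650 nm. Target: Coenzyme A biosynthesis protein CoaBC, Mycobacterium tuberculosis (UniProt P9WNZ1). Compounds at 30 µM. Higher reads as stronger inhibition, judged from the few compounds that gave an IC50. Most strong results did not repeat in a second test. About 67,000 compounds were tested under these conditions; 0.06% (about 40) showed 50% or more at least once.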

| SMILES | percent effect |
|---|---|
| `Cc1n[nH]c(C)c1NC(=O)CN1CCCC1Cn1cncn1` (stereo not shown) | 1.786 |
| `O=C(NCCCNc1ccc(C(F)(F)F)cn1)c1ccccc1` | 8.951 |
| `CN(C)Cc1cn(-c2ccccc2C(=O)NCC2CCCCN2C)cn1` (stereo not shown) | -15.74 |
| `c1ccc2oc(N3CCCC4(CCOC4)C3)nc2c1` (stereo not shown) | -4.481 |
| `COc1ccc(-c2cnc(CN(CC(N)=O)C3CCCC3)o2)cc1` | 2.42 |
| `CN(C)c1ncccc1CN1CCOC(C(=O)Nc2ccccc2)C1` (stereo not shown) | 2.85 |
| `CN(C)[C@@H]1CCN(C(=O)NC2CCCC2)[C@H]1Cc1ccncc1` | 1.426 |
| `Cc1cnn(CC2CCCCN2C(=O)c2cnc3n[nH]c(C)c3c2)c1` (stereo not shown) | -5.094 |
| `Cc1ccc(Br)c(S(=O)(=O)NCc2ccnn2C)c1` | -8.036 |
| `O=C(COC[C@@]12CCC[C@@H]1CN(C1CCCC1)C2)N1CCCC1` | 5.432 |
| `Cc1ccccc1CNC(=O)CNc1ccc(OC2CCOC2)cc1` (stereo not shown) | -4.893 |
| `CSCc1cc(F)ccc1CNCc1cccc(O)c1` | 2.913 |
| `O=C(c1cccnc1O)N1CCOC(Cc2cccc(C(F)(F)F)c2)C1` (stereo not shown) | 7.19 |
| `c1ccc(-c2cccc(N3CCC(NCCc4cscn4)CC3)c2)cc1` | 8.492 |
| `COCCc1noc(CN2CCCC2Cn2nc(C)cc2C)n1` (stereo not shown) | -9.92 |
| `O=C(N1CCOCC1)[C@@]12CCO[C@@H]1CCN(C1CCOCC1)C2` | 7.018 |
| `Cc1sc2c(C3CCCN(C(C)C)C3)nc(C)n2c1C` (stereo not shown) | 0.4866 |
| `Cc1ccc(N2CC[C@@]3(O)CCN(S(C)(=O)=O)C[C@H]3C2)nn1` | -0.1227 |
| `Cc1noc(CCCC(=O)Nc2cc(C(F)(F)F)c[nH]c2=O)n1` | 2.337 |
| `CC(=O)N1CCC(Cc2cnc(Nc3cc(C)on3)cn2)CC1` | 1.663 |
| `COc1cccc(CN2CC3(CCNCC3)CCC2=O)c1OC` | -3.24 |
| `O=C(c1ccc(F)c(F)c1)N1CCN2CCCC2C1` (stereo not shown) | -0.578 |
| `Cc1cccc(CN2CCc3[nH]nc(C(=O)N(C)C)c3C2)n1` | 2.545 |
| `CCc1cnc(N)nc1NCCC(=O)NC1CCCCC1` | 12.65 |
| `COC[C@H]1CCC[C@]12CN(CCc1ccccc1)CCO2` | 4.172 |
| `CCN(CC)c1ncc(Cl)c(C(=O)NC2CC2)n1` | 2 |
| `Cc1cc(C2CCCN2S(=O)(=O)c2cnn(C)c2)on1` (stereo not shown) | -2.408 |
| `CN(C)C(=O)c1nnn(-c2ccc(Br)cc2)n1` | 0.1318 |
| `O=C1COC2(CCN(Cc3ccncc3)CC2)CN1CC1CC1` | -4 |
| `O=c1cc(CN(CCO)C2CC2)nc2ccccn12` | 2.355 |
| `CC(C)c1ocnc1C(=O)N1CCCC(c2ccn[nH]2)C1` (stereo not shown) | 6.601 |
| `Cc1cc(CNC2CCc3nc(C(C)C)nn3C2)on1` (stereo not shown) | 1.324 |
| `O=C(c1ccc2[nH]ccc2c1)N1CC[C@@H]2CN(CC3CC3)CCO[C@@H]2C1` | 0.7389 |
| `OCC1CCN(Cc2cc3c(cc2Br)OCCO3)CC1` | -5.769 |
| `CC(C)(CNC(=O)c1ccc(Cl)o1)NC(=O)OC(C)(C)C` | 6.748 |
| `CCN1CCN(C)C(=O)C12CCN(Cc1csc(C)n1)CC2` | 0.1212 |
| `Cc1ccc(C(CCNCCN(C)C)C2CCOC(C)(C)C2)cc1` (stereo not shown) | 5.524 |
| `O=C(NCc1cnc2n1CCN(Cc1nccs1)C2)c1ccno1` | -1.232 |
| `O=C(NCC1CC1)C1CN(C(=O)c2ccco2)CC12CCOCC2` (stereo not shown) | 9.474 |
| `CC(=O)OCc1ccc(CN2CCCCCC2c2cc(C)no2)o1` (stereo not shown) | 2.596 |
| `CCn1nc(CNC(=O)C2CCCN(CC(N)=O)C2)c2ccccc21` (stereo not shown) | 5.645 |
| `CCOC(=O)Cn1nnnc1-c1ccccc1` | 3.316 |
| `O=C(CN1CCOCC1CC(=O)c1ccco1)NCc1ccccn1` (stereo not shown) | 1.582 |
| `CCCn1nc2c(cc1=O)CN(Cc1nnc(C3CC3)o1)CC2` | -22.11 |
| `Cc1nc(CNC(=O)NCCc2ccc(N(C)C)cc2)cs1` | 4.389 |
| `CCN(Cc1cccc(F)c1)Cn1nc(C)c2c(C)onc2c1=O` | 8.323 |
| `CCn1ccnc1CN1CCN(Cc2ccc(C#N)cc2)CC1` | -3.457 |
| `C[C@@H]1C[C@@H]2CCN(Cc3ccncc3)C[C@H]2O1` | -18.05 |
| `Cc1nsc(NC2CCN(c3ccccc3OC(F)F)C2=O)n1` (stereo not shown) | 1.138 |
| `COCC[C@]1(O)CCN(C2CCN(C(=O)C3CCC3)CC2)C[C@H]1C` | -6.1 |
| `Cc1cccc(CN2CCN3C[C@H](Oc4cncnc4)C[C@H]3C2)n1` | -1.485 |
| `CC(C)C[C@H](NC(=O)Cn1ccc2c(Cl)cccc21)C(=O)O` | 2.525 |
| `COc1ccc(CC(=O)N2CCC(c3n[nH]c(C4CC4)n3)CC2)cc1` | 3.075 |
| `Cc1cc(CN2CC[C@H]3C[C@@H](c4nccs4)O[C@@H]3C2)no1` | -4.665 |
| `CC(C)c1ccc(CN2C(=O)C3(CCNCC3)Nc3ccccc32)cc1` | -48.62 |
| `O=C(CNC(=O)C1CC1)NCCOc1cccc(Cl)c1Cl` | -5.556 |
| `COC1CCCN(c2nc(C)nc3c2CCN(Cc2ccco2)CC3)C1` (stereo not shown) | 1.468 |
| `COc1ccccc1N1CCN(c2nc(N)nc3[nH]cnc23)CC1` | -1.823 |
| `CC(=O)N1CCCN(C(C)c2ccc(Br)cc2)CC1` (stereo not shown) | 4.602 |
| `CCc1cc(N2CCCNCC2)n2nc(C)c(C)c2n1` | -39.29 |
| `CC(C)c1nnc(CN2CCCC3(CC2)CN(C)C(=O)O3)o1` (stereo not shown) | 5.302 |
| `Cc1ncc(C(=O)N2CCOC(C(=O)N3CCCCCC3)C2)c(C)n1` (stereo not shown) | 10.17 |
| `CCc1nc(CN(C)Cc2ncc(-c3cccs3)o2)cs1` | -1.463 |
| `NC(=O)c1cccnc1N1CCN(c2ncnc3c2CCNC3)CC1` | 5.967 |
| `CC(C)c1nc(C2CCCN2CC(=O)N2CCNC2=O)no1` (stereo not shown) | 0.7979 |
| `CC(C)Oc1ccc(CN2CCN3CCN(C)CC3C2)cc1CO` (stereo not shown) | -6.688 |
| `CC[C@@H](C)[C@@H](N)C(=O)Nc1cccc(-c2cnc(N(C)C)nc2)c1` | 7.108 |
| `O=C(N1CCCCC1)N1CCN(CC(O)c2ccccc2)CC1` (stereo not shown) | 8.418 |
| `CCc1nnc2n1CCN(CC(=O)N1CCc3ccccc3C1)C2` | 2.662 |
| `CC(NC(=O)c1ccc2c(c1)OCC(=O)N2)c1ccccc1F` (stereo not shown) | 1.503 |
| `CCCS(=O)(=O)NCCn1ccc(-c2cccs2)n1` | -0.6274 |
| `CC(C)(C)OC(=O)NCCC(=O)N(CCC#N)Cc1ccco1` | -1.733 |
| `O=S(=O)(c1ccc(-c2cnco2)cc1)N1CCC2(CCCNC2)C1` (stereo not shown) | -4.707 |
| `CCCc1nc(C)cc(NCc2ccc(S(N)(=O)=O)cc2)n1` | -5.679 |
| `Cc1noc(CCCC(=O)N2CCN(C)CC2c2ccccc2)n1` (stereo not shown) | 13.29 |
| `CC(C)n1ncc2cc(NC(=O)N3CCC(C(N)=O)C3)cnc21` (stereo not shown) | 4.592 |
| `CNC(=O)[C@@H]1[C@H]2CN(Cc3ccccn3)CCN2C[C@H]1c1ccccc1` | -1.695 |
| `O=C(CNc1cc(-n2cnnn2)ccc1F)Nc1cc(F)ccc1F` | 3.713 |
| `COCCNC(=O)[C@H]1C[C@@H]2CCN(Cc3ccncc3)C[C@H]2O1` | 4.316 |
| `CCCNS(=O)(=O)c1ccc(C(=O)NC(CC)c2cnn(C)c2)cc1` (stereo not shown) | 4.516 |
| `Cc1nn(C)c2nc(N3CCCC3c3nccs3)sc12` (stereo not shown) | 5.283 |
| `N#Cc1cccc(N2CCCC3(CN(C(=O)[C@H]4CCCO4)CCO3)C2)c1` (stereo partly shown) | 0.8333 |
| `CC(=O)N1CCO[C@H]2[C@H](OCCCn3cccn3)CC[C@@H]21` | 0.3699 |
| `COc1ncc(-c2ccc(NC(C)=O)cc2)c(OC)n1` | 8.395 |
| `O=C(CCc1cn[nH]c1)N1C[C@@H](CN2CCOCC2)C[C@H](CO)C1` | 4.321 |
| `CN(Cc1cccnc1)Cc1cncc2c1CCN(Cc1ccoc1)C2` | 1.481 |
| `CC(Oc1cccc(F)c1)C(=O)N(CC(N)=O)C1CCCC1` (stereo not shown) | -2.303 |
| `CC(C)n1[nH]c(=O)c2c1NC(=O)CC2c1ccc2ncccc2c1` (stereo not shown) | -3.509 |
| `Cc1cc(C)nc(C2CCN(C(=O)c3cnco3)C2)n1` (stereo not shown) | 1.46 |
| `Cc1ccc(-c2cc(C(=O)NCCN3CCOCC3)n[nH]2)s1` | 9.091 |
| `COc1cccc(OCC2CCCN(C(=O)c3ncc(F)cc3F)C2)c1` (stereo not shown) | -1.707 |
| `CCOc1ccc(NC2CCN(C(C)C)C2=O)cn1` (stereo not shown) | -0.861 |
| `Cc1cccc2nc(CSCC(=O)Nc3nnc(C(C)C)s3)cc(=O)n12` | 3.294 |

The last 7 entries again:

CC(Oc1cccc(F)c1)C(=O)N(CC(N)=O)C1CCCC1 (stereo not shown) gave -2.303%.
CC(C)n1[nH]c(=O)c2c1NC(=O)CC2c1ccc2ncccc2c1 (stereo not shown) gave -3.509%.
Cc1cc(C)nc(C2CCN(C(=O)c3cnco3)C2)n1 (stereo not shown) gave 1.46%.
Cc1ccc(-c2cc(C(=O)NCCN3CCOCC3)n[nH]2)s1 gave 9.091%.
COc1cccc(OCC2CCCN(C(=O)c3ncc(F)cc3F)C2)c1 (stereo not shown) gave -1.707%.
CCOc1ccc(NC2CCN(C(C)C)C2=O)cn1 (stereo not shown) gave -0.861%.
Cc1cccc2nc(CSCC(=O)Nc3nnc(C(C)C)s3)cc(=O)n12 gave 3.294%.